PubChem BioAssay AID1508588, Peter MacCallum Cancer Centre | 2020

Test: 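Genome-wide search for knock-downs that heighten vemurafenib action in melanoma cells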 (primary screen)
Cell system: human WM266.4 melanoma cells (BRAF V600 mutant)
Reagent: siRNA pool against human genes, 40 nM
Duration: 96 h from transfection to read-out
Conditions: vemurafenib 300 nM (about IC25), added 48 h after transfection, for 48 h; comparison arm got DMSO vehicle only
Measurement: 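Cell gain (DAPI nuclei at end minus before drug, mean of two replicates) and medium lactate by absorbance per cell, both as ratio to non-targeting siRNA, also grouped into fold-change classes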
Reading the numbers: cell gain with vemurafenib: higher = more cell gain than with non-targeting siRNA; lactate per cell with vemurafenib: higher = more lactate made per cell
Rule for the call: 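Enhancement is called by pairing each knock-down's vehicle-arm and drug-arm fold-change classes for viability or glycolysis; which class combinations qualify is not given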
Calls: active = enhances vemurafenib effect; inactive = no enhancement seen
In all, the deposit lists about 18,000 reagents; shown is a random part of them. In the full data, 790 (4.4%) got an active call. 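Calls rest on a combination of fold-change classes in drug and vehicle arms, not all shown here.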 Entries without a mark were called inactive.

With knock-down of LCN8 (lipocalin 8) [SID135625168], the record shows cell gain with vemurafenib 0.32; lactate per cell with vemurafenib 1.07.
Against PKNOX2 (PBX/knotted 1 homeobox 2) [SID152148723], the values are cell gain with vemurafenib 0.89; lactate per cell with vemurafenib 0.82.
For NHEJ1 (non-homologous end joining factor 1) [SID134318599] the deposit lists cell gain with vemurafenib 0.9; lactate per cell with vemurafenib 0.57.
SDR16C5 (short chain dehydrogenase/reductase family 16C member 5) [SID152153040] scored cell gain with vemurafenib 0.68; lactate per cell with vemurafenib 0.46.
Knock-down of CHAF1A (chromatin assembly factor 1 subunit A) [SID152151204] resulted in: cell gain with vemurafenib 0.06; lactate per cell with vemurafenib 0.6.
Depletion of KCTD7 (potassium channel tetramerization domain containing 7) [SID134320959] resulted in: cell gain with vemurafenib 0.84; lactate per cell with vemurafenib 0.5.
After knock-down of APLF (aprataxin and PNKP like factor) [SID134322346], the record shows cell gain with vemurafenib 0.59; lactate per cell with vemurafenib 1.43.
With knock-down of PCDHB10 (protocadherin beta 10) [SID152153679], the screen gave cell gain with vemurafenib 1.08; lactate per cell with vemurafenib 0.54.
Silencing of AIFM3 (AIF family member 3) [SID134313060] resulted in: cell gain with vemurafenib 0.38; lactate per cell with vemurafenib 1.01.
FAM174C (family with sequence similarity 174 member C) [SID134324564] gave cell gain with vemurafenib 0.53; lactate per cell with vemurafenib 0.84.
For RAB31 (RAB31, member RAS oncogene family) [SID135621883], the values are cell gain with vemurafenib 0.23; lactate per cell with vemurafenib 2.4.
IGSF21 (immunoglobin superfamily member 21) [SID134322480] gave cell gain with vemurafenib 0.91; lactate per cell with vemurafenib 1.
After knock-down of C19orf25 (chromosome 19 open reading frame 25) [SID135623193] the results were cell gain with vemurafenib 0.79; lactate per cell with vemurafenib 0.99.
Silencing of GRID1 (glutamate ionotropic receptor delta type subunit 1) [SID152154150] gave: cell gain with vemurafenib 0.71; lactate per cell with vemurafenib 0.62.
Knock-down of MMP11 (matrix metallopeptidase 11) [SID152153110] resulted in: cell gain with vemurafenib 0.26; lactate per cell with vemurafenib 0.79.
Depletion of MRPL43 (mitochondrial ribosomal protein L43) [SID134322935] came out at: cell gain with vemurafenib 0.46; lactate per cell with vemurafenib 0.45.
For SEPHS2 (selenophosphate synthetase 2) [SID135621438], the values are cell gain with vemurafenib 0.55; lactate per cell with vemurafenib 0.54.
YBEY (ybeY metalloendoribonuclease) [SID152147874] scored cell gain with vemurafenib -0.19 (active); lactate per cell with vemurafenib -0.04.
RICTOR (RPTOR independent companion of MTOR complex 2) [SID135623250] showed cell gain with vemurafenib 0.33; lactate per cell with vemurafenib 0.78.
With knock-down of ARHGEF28 (Rho guanine nucleotide exchange factor 28) [SID152150666] the results were cell gain with vemurafenib 0.64; lactate per cell with vemurafenib 0.93.
Against MTCL2 (microtubule crosslinking factor 2) [SID135625222] the deposit lists cell gain with vemurafenib 0.93; lactate per cell with vemurafenib 0.98.
After knock-down of ZMIZ2 (zinc finger MIZ-type containing 2) [SID134326322] the results were cell gain with vemurafenib 0.69; lactate per cell with vemurafenib 0.97.
After knock-down of ELOA2 (elongin A2) [SID135620939], the record shows cell gain with vemurafenib 0.43; lactate per cell with vemurafenib 2.4.
Knock-down of CXCL9 (C-X-C motif chemokine ligand 9) [SID152152544] gave: cell gain with vemurafenib 0.3; lactate per cell with vemurafenib 1.08.
TMEM98 (transmembrane protein 98) [SID135623952] showed cell gain with vemurafenib 0.95; lactate per cell with vemurafenib 1.17.
PRSS23 (serine protease 23) [SID152151863] showed cell gain with vemurafenib 0.79; lactate per cell with vemurafenib 0.83.
GNL1 (G protein nucleolar 1) [SID135622246] scored cell gain with vemurafenib 1.24; lactate per cell with vemurafenib 0.84.

Records above called active, once more:
YBEY (ybeY metalloendoribonuclease) [SID152147874] → cell gain with vemurafenib = -0.19 (active); lactate per cell with vemurafenib = -0.04
